Several values for one entry are separate records, joined by “and”; a condition that tells them apart may be missing. Identical values can stand only once. In all, about 400,000 compounds went through this assay and about 5,500 (1.4%) were called active. The shares of active, inactive and inconclusive entries below differ from those in the screen. Calls come from the whole dose curve; as a rule, active = well fitted cell-killing curve with a large enough effect; inconclusive = small, poorly fitted or top-dose-only effect, or effect the other way; inactive = flat fitted curve, though single readings scatter. Potencies of inconclusive entries are doubtful fits and often do not repeat.
Assay: qHTS assay for MDR1-selective chemotherapeutics: Primary screen using the parental adenocarcinoma cell KB-3-1; note: nearly all actives have a fitted effect of over 60% in size
Conditions: KB-3-1 viability, CellTiter-Glo ATP luminescence, 72 h; activity change, negative = cytotoxic: at 46.1 µM (top of the series)
In short: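 Parental KB-3-1 adenocarcinoma cells in phenol-red-free DMEM with 10% FBS were pin-treated with compounds at several concentrations, incubated 72 h at 37 °C, and viability read by CellTiter-Glo luminescence; concentration-effect curves were fitted after normalization.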
% is set by controls: 0 for no effect and ±100 for the full control effect; potency is the fitted concentration of half-maximal effect.

Row | SMILES | Potency | activity change, negative = cytotoxic
1 | Oc1ccc(COCc2ccccc2)c2cccnc12 | inconclusive: 2.59 µM [cytotoxic, full curve, poor fit] | –
2 | Cc1ccc2nc(-c3ccsc3)c(Nc3ccccc3C)n2c1 | – | inactive: 11.6%
3 | CCOc1cc(-c2sc(Nc3cc(C)ccc3OC)n[n+]2-c2ccccc2)ccc1OC | inconclusive: 29.1 µM [cytotoxic, single point] | –
4 | Cc1cc(CNC(=O)COc2ccc(F)cc2)c2ccccc2n1 | – | inactive: -19.2%
5 | Cc1ccc(NC(=O)CSc2ncc3c(n2)-c2ccccc2N(Cc2cccc(F)c2)S3(=O)=O)cc1F | – | inactive: -1.42%
6 | Cc1ccc(NC(=O)c2ccc(Cl)c(S(=O)(=O)N3CCCCCC3)c2)nc1 | inconclusive: 29.1 µM [cytotoxic, single point] | –
7 | Cc1ccc(NC(=O)Nc2ccc3c(c2)OCO3)nc1 | – | inactive: 0.631%
8 | CCOc1ccc(C(c2c(NC(=O)c3ccco3)sc(C)c2C)N2CCOCC2)cc1 (stereo unspecified) | inconclusive: 18.4 µM [cytotoxic, single point] | –
9 | COc1ccc(-n2c(/C=C/c3ccccc3F)nc3cc(OC)c(OC)cc3c2=O)cc1Cl | inconclusive: 23.1 µM [cytotoxic, single point] | –
10 | CCc1nc2c(OCc3cccc(Cl)c3)cccn2c1N(C)C(=O)CC(C)C | – | inactive: 0%
11 | COc1ccc(CCCNC(=O)C2Cc3c(-c4ccccc4)ccnc3O2)cc1 (stereo unspecified) | inconclusive: 25.9 µM [cytotoxic, single point] | –
12 | COCCNc1nc(-c2cc(F)ccc2C)c2sc(-c3ccccc3)cc2n1 | – | inactive: -0.317%
13 | COc1ccc(-c2cc(=O)oc(-c3cccc(C)c3)n2)cc1 | – | inactive: -0.019%
14 | O=C(COC(=O)c1ccc(F)cc1)NCCc1ccc(F)cc1 | inconclusive: 23.1 µM [rising, single point] | –
15 | CCOC(=O)c1ccccc1NC(=O)Cn1c(=O)n(Cc2nc(-c3ccccc3)no2)c(=O)c2ccccc21 | – | inactive: -5.27%
16 | CSc1ccc(Cn2c(C)c(C(=O)NCc3ccc(Cl)c(Cl)c3)sc2=O)cc1 | active: 14.6 µM | –
17 | Cc1cccc(Nc2nc(N)c([N+](=O)[O-])c(N3CCC(C)CC3)n2)c1 | inconclusive: 23.1 µM [cytotoxic, single point] | –
18 | COc1ccc(-c2cc(C(=O)N3CCN(c4ncccn4)CC3)c3ccccc3n2)cc1 | – | inactive: -6.51%
19 | Cc1cc(/C=N/NC(=O)Cn2c3ccccc3c(=O)c3ccccc32)c(C)n1-c1ccc(Cl)cc1 | inconclusive: 29.1 µM [rising, single point] | –
20 | CCOC(=O)c1cc(-c2ccccc2)sc1NC(=O)CSc1nnc(N)s1 | – | inactive: 2.3%
21 | Nc1ccccc1N=Nc1ccccc1N | – | inactive: -4.01%
22 | CC1CCCCN1C(=O)c1cccc(NC2=C(Cl)C(=O)N(Cc3ccccc3)C2=O)c1 (stereo unspecified) | inconclusive: 29.1 µM [cytotoxic, single point] | –
23 | CCOc1ccc2nc(S(=O)(=O)NC(=O)C3(C)CCN3C(=O)c3cccc(F)c3)sc2c1 (stereo unspecified) | – | inactive: 0%
24 | Cc1ccc(C(=O)N2CCN(c3ccc(NC(=O)c4ccc5c(c4)OCCO5)cc3)CC2)cc1 | inconclusive: 9.2 µM [cytotoxic, partial curve, poor fit] | –

Row | SMILES | Potency | activity change, negative = cytotoxic
25 | Cc1ccccc1OCC(=O)Nc1ccc2c(c1)ncn2C | inconclusive: 29.1 µM [rising, single point] | –
26 | CN(CCc1ccccc1)C(=O)c1ccc(NC(=O)Cc2cccc([N+](=O)[O-])c2)cc1 | inconclusive: 32.6 µM [cytotoxic, single point] | –
27 | C[C@]12C[C@H](O)[C@H]3[C@@H](CCC4=CC(=O)CC[C@@]43C)[C@@H]1CC[C@@H]2C(=O)CO | – | inactive: -7.51%
28 | CCc1ccc(-n2c(SCc3ccccc3F)nc3[nH]ncc3c2=O)cc1 | inconclusive: 23.1 µM [cytotoxic, single point] | –
29 | CCCC1CCC(c2ccc(C(=O)NN)cc2)CC1 (stereo unspecified) | inconclusive: 6.51 µM [cytotoxic, partial curve] | –
30 | N#C/C(=C\c1c(N(Cc2ccccc2)Cc2ccccc2)nc2ccccn2c1=O)C(N)=O | – | inactive: 4.98%
31 | O=C1c2[nH]nc(-c3ccccc3O)c2C(c2ccc(Cl)cc2)N1Cc1ccco1 (stereo unspecified) | inconclusive: 23.1 µM [cytotoxic, single point] | –
32 | COCCn1c(SCC(=O)NCCc2ccccc2)nc2c([nH]c3ccccc32)c1=O | inconclusive: 16.4 µM [rising, single point] | –
33 | Cc1ccc(/C=C/S(=O)(=O)NCCC(=O)NCc2ccccc2F)cc1 | – | inactive: 1.4%
34 | COc1cc2oc(=O)cc(-c3ccc(-c4ccc(O)cc4)cc3)c2c(OC)c1OC | – | inactive: 0%
35 | CCC(=O)N1CCN(c2ccc(NC(=O)c3ccc([N+](=O)[O-])o3)cc2Cl)CC1 | inconclusive: 18.4 µM [cytotoxic, single point] | –
36 | O=C1NC[C@@H](CCCCN2CCN(CCC3CCCCC3)C(=O)C2=O)N(CC2CCCCC2)C1=O | – | inactive: -0.874%
37 | COc1nc(Nc2ccccc2F)nc(OC)n1 | inconclusive: 32.6 µM [cytotoxic, partial curve, poor fit] | –
38 | Cc1ccsc1C(=O)OCC(=O)NCc1ccc(Cl)cc1 | inconclusive: 32.6 µM [cytotoxic, single point] | –
39 | O=C(CCC1N=C2c3ccccc3N=C(SCC(=O)Nc3ccccc3F)N2C1=O)NCc1ccccc1 (stereo unspecified) | – | inactive: -10.4%
40 | COc1ccc(S(=O)(=O)N2CCC(C(=O)NC3CCCCC3C)CC2)cc1 (stereo unspecified) | – | inactive: 11.8%
41 | COc1ccc(S(=O)(=O)Nc2cccc3c2O[C@H](CN(C)S(=O)(=O)c2cccs2)[C@@H](C)CN([C@H](C)CO)C3=O)cc1 | inconclusive: 2.06 µM [cytotoxic, partial curve, poor fit] | –
42 | COc1ccc(C(CC(=O)Nc2ccccc2OC)n2cccc2)cc1 (stereo unspecified) | inconclusive: 18.4 µM [rising, partial curve] | –
43 | O=C(NC(=S)Nc1cc(-c2nc3ccccc3[nH]2)ccc1Cl)c1ccc2c(c1)OCO2 | active: 18.4 µM | –
44 | O=C1NC(Cc2ccc(O)cc2)c2nc3ccc(F)cc3c(=O)n2-c2cc3ccccc3cc21 (stereo unspecified) | active: 13 µM | –
45 | O=C1NC[C@@H](c2ccccc2)OC(=O)[C@H](Cc2ccc(F)cc2)C/C=C\C[C@@H]1CC(=O)N(CCO)Cc1ccccc1 | inconclusive: 29.1 µM [cytotoxic, single point] | –
46 | Cc1ccn2c(Nc3ccccc3C)c(-c3ccccn3)nc2c1 | inconclusive: 18.4 µM [cytotoxic, single point] and inconclusive: 29.1 µM [cytotoxic, single point] | –
47 | O=C(Nc1nccs1)C(Br)C(Br)c1ccccc1 (stereo unspecified) | inconclusive: 16.4 µM [cytotoxic, single point] | –
48 | COc1ccc(-n2c(Cc3cccn3C)nnc2SCC(=O)Nc2ccc(C)cc2C)cc1 | inconclusive: 58 µM [cytotoxic, full curve, poor fit] | –

Row | SMILES | Potency | activity change, negative = cytotoxic
49 | COc1ccc(NC(=S)NN(C)C(=S)Nc2ccc(OC)cc2)cc1 | inconclusive: 20.6 µM [cytotoxic, single point] | –
50 | COc1ccc(-n2c(C)cc(C(=O)CCl)c2C)cc1 | active: 6.51 µM | –
51 | O=C(CSc1nc2ccccc2[nH]1)NCc1ccco1 | – | inactive: -9.68%
52 | C=CCn1c(C)c(/C=C/c2cc[n+](C)cc2)c2ccccc21 | active: 2.31 µM | –
53 | CC(C)NC(=O)C1(C)CSCC(=O)N1Cc1cccc(F)c1 (stereo unspecified) | – | inactive: 6.7%
54 | COc1ccccc1NC(=O)C1=C(C)Nc2nc3ccccc3n2C1c1cccs1 (stereo unspecified) | active: 3.26 µM | –
55 | N#Cc1nc(N2CCOCC2)nc(N2CCOCC2)n1 | inconclusive: 13 µM [rising, partial curve, poor fit] | –
56 | CC(=O)c1ccc(OCc2ccc(Oc3c(Cl)cccc3[N+](=O)[O-])cc2)cc1 | inconclusive: 23.1 µM [cytotoxic, partial curve] | –
57 | Cc1ccc2oc(/N=C(\N)NC(=O)C3CC3)nc2c1 | inconclusive: 29.1 µM [cytotoxic, single point] | –
58 | CCc1ccc(CCC(=O)Nc2sc3c(c2C#N)CCCC3)o1 | inconclusive: 2.91 µM [cytotoxic, partial curve, poor fit] | –
59 | c1ccc(CNc2cncnc2)cc1 | – | inactive: -2.63%
60 | Cc1cc(C)nc(NC(=O)c2ccc(COc3ccccc3Cl)cc2)c1 | inconclusive: 6.51 µM [cytotoxic, full curve, poor fit] | –
61 | Cc1ccc(/C=C2\SC(=S)N(CCC(=O)NCCCN3CCOCC3)C2=O)cc1 | – | inactive: -9.76%
62 | O=[N+]([O-])c1cccc(NC(=S)NCCc2ccccc2)c1 | inconclusive: 23.1 µM [cytotoxic, single point] | –
63 | CC(C)Nc1cc(C(F)(F)F)nc(-c2ccccn2)n1 | inconclusive: 20.6 µM [cytotoxic, single point] | –
64 | N#CCSc1nc(-c2ccccc2)nc2ccc(F)cc12 | – | inactive: -4.14%
65 | O=C(Nc1ccn(Cc2ccccc2F)n1)c1ccc(COc2ccc(Cl)cc2Cl)o1 | inconclusive: 29.1 µM [cytotoxic, single point] | –
66 | Cc1ccc(O)c(C(=O)c2cnn(-c3ccccc3)c2)c1 | – | inactive: -0.915%
67 | COc1ccc(C(=O)NCCn2cc(SCC(=O)Nc3cccc(C)c3)c3ccccc32)cc1 | inconclusive: 18.4 µM [cytotoxic, single point] | –
68 | COC(=O)c1ccc(C)c(NC(=O)C2CC(=O)N(C3CCCC(C)C3C)C2)c1 (stereo unspecified) | inconclusive: 32.6 µM [cytotoxic, single point] | –
69 | CCCC(=O)N1CCCC1(C)C(=O)Nc1ccc2cn[nH]c2c1 (stereo unspecified) | – | inactive: 0%
70 | CCOc1ccc(OCCC(=O)OCC(=O)Nc2ccc(N3CCOCC3)cc2)cc1 | inconclusive: 29.1 µM [rising, single point] | –
71 | CCOC(=O)c1ccc(NC(=O)CCn2nnc3ccccc32)cc1 | inconclusive: 9.2 µM [rising, partial curve, poor fit] | –
